The match of structure and compound is tentative.

Protein sequences, listed by entry. Tags and fused reporters are not part of them.
UniProt Q13547, whole entry: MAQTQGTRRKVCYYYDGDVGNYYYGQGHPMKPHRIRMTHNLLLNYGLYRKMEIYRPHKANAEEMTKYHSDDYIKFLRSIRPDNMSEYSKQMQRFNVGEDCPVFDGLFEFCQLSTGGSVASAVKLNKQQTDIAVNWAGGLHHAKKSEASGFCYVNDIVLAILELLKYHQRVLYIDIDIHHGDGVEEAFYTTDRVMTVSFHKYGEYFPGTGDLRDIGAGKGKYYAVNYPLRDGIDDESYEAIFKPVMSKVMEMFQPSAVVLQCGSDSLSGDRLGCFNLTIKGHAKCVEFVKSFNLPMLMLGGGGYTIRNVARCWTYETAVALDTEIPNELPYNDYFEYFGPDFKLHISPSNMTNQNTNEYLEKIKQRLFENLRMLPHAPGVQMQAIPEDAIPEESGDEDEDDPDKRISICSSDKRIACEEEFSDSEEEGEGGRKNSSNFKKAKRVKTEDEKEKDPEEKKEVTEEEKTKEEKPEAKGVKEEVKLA

Assay [1] concerns Colo205 cells. Briefly: Cell-based proliferation assay for GI50 (CyQUANT), Colo205. As to conditions: read-out: Cellular or Growth Inhibition Activity in Colo205 cells, GI50, 96 h treatment.
In assay [2] the target is HDAC1 enzyme (Homo sapiens, UniProt Q13547). Nature of the assay: In vitro HDAC assay for determination of IC50 values (BIOMOL fluorescent-based HDAC activity assay). As to conditions: read-out: HDAC1 enzyme activity IC50.

As usually defined, the GI50 is the concentration giving 50% growth inhibition. For the molecule `CCCCc1nc2cc(/C=C/C(=O)NO)ccc2n1C1CCCNC1` (stereo not drawn), the GI50 in assay [1] is 4900 nM.

By IC50 is commonly meant the concentration that gives 50% inhibition. For the molecule `CCCCCCc1nc2cc(/C=C/C(=O)NO)ccc2n1C1CCCNC1` (stereo not drawn), the IC50 in assay [2] was 100 nM. In assay [1], the GI50 was 1230 nM.

The record behind these values is patent US8143282B2, “Heterocyclic compounds” (S*BIO Pte Ltd., priority 2005, dated 2012).
